Data reported in patent US20210183469A9, “COMPUTATIONAL PLATFORM FOR IN SILICO COMBINATORIAL SEQUENCE SPACE EXPLORATION AND ARTIFICIAL EVOLUTION OF PEPTIDES” (priority 2018, published 2021).
Part of at least one peptide drawing is inferred or uncertain, most often the ends. No end group written: not given here.

Tests used:
[1] = test system: Candida albicans ATCC 90028; assay: MIC, two-fold serial dilution in microtitre plates; assay type: cell-based
E. coli (ATCC 25922) = assay: Membrane polarization assay with DiSC3(5); assay type: cell-based, Escherichia coli; conditions: 12.5 μM (2-fold above the MIC)
Experimental: When the cytoplasmic membrane is intact, the fluorescent probe DiSC3(5) accumulates into the cytoplasmic membrane and then aggregates, causing self-quenching of the fluorescence. In the presence of a membrane-depolarizing agent, DiSC3(5) is released into the medium, leading to an increase in fluorescence that can be monitored over time. The experiment was performed as previously described (André et al., ACS Chem. Biol. 2015 Jul. 30; 10(10): 2257-66). Briefly, exponentially growing bacteria were centrifuged (1000×g, 10 min, 4° C.), washed with PBS and re-suspended in the same buffer to an A630 of 0.1; then 700 µL of bacteria were pre-incubated with 1 μM DiSC3(5) in the dark during 10 min at 37° C., and then 100 μL of 1 mM KCl were added in order to equilibrate the cytoplasmic and external K+ concentrations. […] Three independent experiments were performed and results correspond to a representative experiment with negative (PBS) and positive (melittin) controls.

[2] = test system: P. aeruginosa (ATCC 27853); assay: SEM-FEG imaging; assay type: cell-based, Pseudomonas aeruginosa; conditions: 25 μM (MIC) and 50 μM, 1 h
[3] = test system: Candida parapsilosis ATCC 22019; assay: MIC, two-fold serial dilution in microtitre plates; assay type: cell-based
[4] = test system: P. aeruginosa strain PAO1; assay: Scarification (abscess) skin infection mouse model; assay type: in vivo; conditions: mice
E. coli ATCC 25922 [5] = assay: Time-kill studies; assay type: cell-based, Escherichia coli
E. coli ATCC 25922 [6] = assay: SYTOX Green uptake assay (cytoplasmic membrane permeabilization); assay type: cell-based, Escherichia coli; conditions: 12.5 μM (2-fold above the MIC)
Experimental: The guavanin 2-induced permeabilization of the bacterial cytoplasmic plasma membrane of E. coli ATCC 25922 was determined by fluorometric measurement of SYTOX green (SG) influx (Thevissen et al., Appl. Environ. Microbiol. 1999 December; 65(12): 5451-8). SG is a high-affinity nucleic acid dye that is impermeant to live cells. When the cell membrane is damaged, this dye penetrates into the cell and binds to intracellular DNA, leading to an increase in fluorescence. For SG uptake assay, exponentially growing bacteria (6×10^5 CFU·mL^−1) were re-suspended in PBS after centrifugation (1000×g, 10 min, 4° C.) and washing steps. 792 μL of the bacterial suspension was pre-incubated with 8 μL of 100 μM SG during 30 min at 37° C. in the dark. […] Three independent experiments were performed and results correspond to a representative experiment with negative (PBS) and positive (melittin) controls.

[7] = test system: Pseudomonas aeruginosa ATCC 27853; assay: MIC, two-fold serial dilution in microtitre plates; assay type: cell-based

For RQYMRQIEQALRYGYRISRR-NH2 [Guavanin 2], the “antifungal activity in words” value [1] was “inactive”, the “DiSC3(5) fluorescence (membrane potential)” value (E. coli (ATCC 25922)) was “decrease in DiSC3(5) fluorescence” and the “effect on bacterial cells in SEM-FEG images” value [2] was “membrane damage (deformations or indentations)”. The “antifungal activity in words” value [3] was “poor killing”, the CFU counts ([4]; all doses tested, p<0.0001, two-way ANOVA) was “significantly reduced CFU counts” and the “killing slower than [I5, R8] mastoparan” value (E. coli ATCC 25922 [5]) was 8 fold. The “colony forming units after incubation” value (E. coli ATCC 25922 [5]; 120 min, 12.5 μM (2-fold above the MIC), reduced from 10^7) was ~10^5 colony forming units, the “SYTOX Green (SG) influx” value (E. coli ATCC 25922 [6]) was “only a slow and very small amount of dye influx” and the “Active Concentration (MIC)” value [7] was 25 µM.
In the case of RYGYGGYGGGRYGGGYGSGR-NH2 [Fragment 2], the anti-infective activity ([4]; single dose at 6.25 μg mL^−1, 4 days post-infection) is reported as “no activity”.
